One test addresses T1, WW domain of FBP21 (UniProt Q61048).
T1 sequence (looked up): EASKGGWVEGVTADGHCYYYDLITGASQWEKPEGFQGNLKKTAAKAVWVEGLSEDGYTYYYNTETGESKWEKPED
In words: radiolabeled GST-peptide probe on a western blot of WW domains (far-western). (In general: In western blotting, separated proteins are transferred to a membrane and probed.)

Chains of the proteins cited; added tags and fusions are not shown. Residues count along the entry.
UniProt Q9R1C7, residues 140-173: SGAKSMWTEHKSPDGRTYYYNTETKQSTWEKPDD

A further test concerns the target WW domain of FBP11 (UniProt Q9R1C7). The test is described as above.

These are yes or no findings as the source states them, for the method shown. Some entries that bind do so weakly or less than the wild type. Sequences can lack the tags named with a protein.

As for GMGIPPPPPLPGVGIPPPPPLP (peptide, not shown: a dimerising Fc or GST, radiolabeled (label and position not stated)), the binding entry with WW domain of FBP21 and with WW domain of FBP11 was “binds” in each case.

The values are drawn from patent publication US20030170683A1.
